Laboratory results from patent US20260242721A1, “A SYNTHETIC CELLULAR ADVANCED SIGNAL ADAPTER (SCASA) SYSTEM” (Danmarks Tekniske Universitet, priority 2023, published 2026).
Some of these results come from one statement about several compounds together.

Tested on: CD19
Experiment: Yeast surface display (YSD) of CD19, antibody staining and flow cytometry
Assay type: cell-based, Saccharomyces cerevisiae
Conditions: α-factor 0-100 μM, 20 hrs
Method: To investigate the different variants of CD19 modules, yeast cells were grown and, in some cases, stimulated to present CD19 differentially, whereafter they were stained with antibodies and assessed by flow cytometry. Flow cytometric measurement was done using a NovoCyte Quanteon flow cytometer (Agilent) to quantify CD19 by staining with mouse anti-CD19 (FMC63) (Absolute Antibody; Ab00613) and goat anti-mouse-AF647 (polyclonal) (Thermo Fisher; A-21236), detected in R667/30-H, as well as rabbit anti-HA (RM305) (Thermo Fisher; MA5-27915) and goat anti-rabbit-AF488 (polyclonal) (Thermo Fisher; A-11008), detected in B525/45-H (see FIG. 7), and to measure PRP-regulated morphological changes (SSC-H). […] Data represents means of median fluorescence intensity (mMFI) for three biological replicates and standard deviations hereof. Two-way ANOVA with multiple comparisons tests was conducted for all conditions. Histograms are representative replicates. No SSC-normalization was used in the evaluation of the effector module, unlike in Example 1, as it is the absolute response of all effects combined that constitute the total output that CAR T cells interpret and react to. […]

B1: PTDH3: constitutive Saccharomyces cerevisiae promoter, SEQ ID NO: 10, processing module (DIX28, DIX49) (nucleic acid, listed as Saccharomyces cerevisiae)
DNA: CTATTTTCGAGGACCTTGTCACCTTGAGCCCAAGAGAGCCAAGATTTAAATTTTCCTATGACTTGATGCAAATTCCCAAAGCTAATAACATGCAAGACACGTACGGTCAAGAAGACATATTTGACCTCTTAACAGGTTCAGACGCGACTGCCTCATCAGTAAGACCCGTTGAAAAGAACTTACCTGAAAAAAACGAATATATACTAGCGTTGAATGTTAGCGTCAACAACAAGAAGTTTAATGACGCGGAGGCCAAGGCAAAAAGATTCCTTGATTACGTAAGGGAGTTAGAATCATTTTGAATAAAAAACACGCTTTTTCAGTTCGAGTTTATCATTATCAATACTGCCATTTCAAAGAATACGTAAATAATTAATAGTAGTGATTTTCCTAACTTTATTTAGTCAAAAAATTAGCCTTTTAATTCTGCTGTAACCCGTACATGCCCAAAATAGGGGGCGGGTTACACAGAATATATAACATCGTAGGTGTCTGGGTGAACAGTTTATTCCTGGCATCCACTAAATATAATGGAGCCCGCTTTTTAAGCTGGCATCCAGAAAAAAAAAGAATCCCAGCACCAAAATATTGTTTTCTTCACCAACCATCAGTTCATAGGTCCATTCTCTTAGCGCAACTACAGAGAACAGGGGCACAAACAGGCAAAAAACGGGCACAACCTCAATGGAGTGATGCAACCTGCCTGGAGTAAATGATGACACAAGGCAATTGACCCACGCATGTATCTATCTCATTTTCTTACACCTTCTATTACCTTCTGCTCTCTCTGATTTGGAAAAAGCTGAAAAAAAAGGTTGAAACCAGTTCCCTGAAATTATTCCCCTACTTGACTAATAAGTATATAAAGACGGTAGGTATTGATTGTAATTCTGTAAATCTATTTCTTAAACTTCTTAAATTCTACTTTTATAGTTAGTCTTTTTTTTAGTTTTAAAACACCAAGAACTTAGTTTCGAATAAACACACATAAACAAACAAA
  maximal output fold change of CD19 display of non-upregulated promoters: 2.9-3.8 fold

B2: PPGK1: constitutive Saccharomyces cerevisiae promoter, SEQ ID NO: 11, processing module (DIX27, DIX47) (nucleic acid, listed as Saccharomyces cerevisiae)
DNA: AGACGCGAATTTTTCGAAGAAGTACCTTCAAAGAATGGGGTCTTATCTTGTTTTGCAAGTACCACTGAGCAGGATAATAATAGAAATGATAATATACTATAGTAGAGATAACGTCGATGACTTCCCATACTGTAATTGCTTTTAGTTGTGTATTTTTAGTGTGCAAGTTTCTGTAAATCGATTAATTTTTTTTTCTTTCCTCTTTTTATTAACCTTAATTTTTATTTTAGATTCCTGACTTCAACTCAAGACGCACAGATATTATAACATCTGCATAATAGGCATTTGCAAGAATTACTCGTGAGTAAGGAAAGAGTGAGGAACTATCGCATACCTGCATTTAAAGATGCCGATTTGGGCGCGAATCCTTTATTTTGGCTTCACCCTCATACTATTATCAGGGCCAGAAAAAGGAAGTGTTTCCCTCCTTCTTGAATTGATGTTACCCTCATAAAGCACGTGGCCTCTTATCGAGAAAGAAATTACCGTCGCTCGTGATTTGTTTGCAAAAAGAACAAAACTGAAAAAACCCAGACACGCTCGACTTCCTGTCTTCCTATTGATTGCAGCTTCCAATTTCGTCACACAACAAGGTCCTAGCGACGGCTCACAGGTTTTGTAACAAGCAATCGAAGGTTCTGGAATGGCGGGAAAGGGTTTAGTACCACATGCTATGATGCCCACTGTGATCTCCAGAGCAAAGTTCGTTCGATCGTACTGTTACTCTCTCTCTTTCAAACAGAATTGTCCGAATCGTGTGACAACAACAGCCTGTTCTCACACACTCTTTTCTTCTAACCAAGGGGGTGGTTTAGTTTAGTAGAACCTCGTGAAACTTACATTTACATATATATAAACTTGCATAAATTGGTCAATGCAAGAAATACATATTTGGTCTTTTCTAATTCGTAGTTTTTCAAGTTCTTAGATGCTTTCTTTTTCTCTTTTTTACAGATCATCAAGGAAGTAATTATCTACTTTTTACAACAAATATAAAACA
  maximal output fold change of CD19 display of non-upregulated promoters: 2.9-3.8 fold
